Test results reported in publication PMC8582215.

Columns and labels:
[1] = target: NYFP (N-terminus of YFP); assay: split reporter; BiFC: ZjSEP3 in pSPYNE (NYFP) and AtLHY in pSPYCE (CYFP), agro-infiltrated Nicotiana benthamiana leaves, observed 48 h after infiltration
[2] = target: ZjSEP3-NYFP (Ziziphus jujuba); assay: as above

binding [1]: no binding | binding [2]: binds
B1: AtLHY-CYFP (protein, UniProt Q6R0H1 1-645)
chain: MDTNTSGEELLAKARKPYTITKQRERWTEDEHERFLEALRLYGRAWQRIEEHIGTKTAVQIRSHAQKFFTKLEKEAEVKGIPVCQALDIEIPPPRPKRKPNTPYPRKPGNNGTSSSQVSSAKDAKLVSSASSSQLNQAFLDLEKMPFSEKTSTGKENQDENCSGVSTVNKYPLPTKQVSGDIETSKTSTVDNAVQDVPKKNKDKDGNDGTTVHSMQNYPWHFHADIVNGNIAKCPQNHPSGMVSQDFMFHPMREETHGHANLQATTASATTTASHQAFPACHSQDDYRSFLQISSTFSNLIMSTLLQNPAAHAAATFAASVWPYASVGNSGDSSTPMSSSPPSITAIAAATVAAATAWWASHGLLPVCAPAPITCVPFSTVAVPTPAMTEMDTVENTQPFEKQNTALQDQNLASKSPASSSDDSDETGVTKLNADSKTNDDKIEEVVVTAAVHDSNTAQKKNLVDRSSCGSNTPSGSDAETDALDKMEKDKEDVKETDENQPDVIELNNRKIKMRDNNSNNNATTDSWKEVSEEGRIAFQALFARERLPQSFSPPQVAENVNRKQSDTSMPLAPNFKSQDSCAADQEGVVMIGVGTCKSLKTRQTGFKPYKRCSMEVKESQVGNINNQSDEKVCKRLRLEGEAST

Results are given in words; binding and its absence hold for the method and conditions named. Binding seen in cells or lysates may run through a third protein. For some assays here: Binding calls can cover weak binding; strength is not graded here. Tags and fused reporters may be left off the sequences shown.
